Measured values published in the supplement of paper PMC10331698.
± gives the standard deviation of the averaged measurements. Most values lie at the level of the controls, where differences are scatter.

Tests used:
Experiment in all cases: level (log10 ratio to DMSO vehicle control); higher = higher biomarker level / cell amount than vehicle control
Hexafluoroamylene glycol = compound: OCC(F)(F)C(F)(F)C(F)(F)CO [Hexafluoroamylene glycol]; conditions: 2200 nM; in DMSO
Description: (§1)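 BioMAP Diversity Plus panel of 12 human primary cell co-culture systems (3C, 4H, LPS, SAg, BT, BF4T, BE3C, CASM3C, HDF3CGF, KF3CT, MyoF, Mphg). Compounds were added 1 h before stimulation and left for 24 h (MyoF 48 h; BT 72 h for soluble read-outs or 6 d for IgG). Biomarkers were read by ELISA, cytotoxicity by SRB, PBMC viability and proliferation by Alamar Blue. Each well value was divided by the mean of 8 DMSO control wells on the same plate and log10 transformed; duplicate blinded samples were tested at 4 concentrations.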

[1] = compound: O=C(Cl)C(F)(F)C(F)(F)C(F)(F)C(=O)Cl [Hexafluoroglutaryl chloride]; conditions: 2200 nM; in DMSO
Description: as §1

[2] = compound: FC(F)(F)C(F)(C(F)(F)F)C(F)(F)C(F)(F)CC1CO1 [3-(Perfluoro-3-methylbutyl)-1,2-propenoxide]; conditions: in DMSO
Description: as §1

[3] = compound: OCCCC(F)(F)C(F)(F)C(F)(F)C(F)(F)C(F)(F)C(F)(F)C(F)(F)F [7:3 Fluorotelomer alcohol]; conditions: 2200 nM; in DMSO
Description: as §1

[4] = compound: O=S(=O)(O)CCC(F)(F)C(F)(F)C(F)(F)C(F)(F)F [4:2 Fluorotelomer sulfonic acid]; conditions: 2200 nM; in DMSO
Description: as §1

[5] = compound: C=CC(=O)OCCC(F)(F)C(F)(F)C(F)(F)C(F)(F)C(F)(F)C(F)(F)C(F)(F)C(F)(F)F [8:2 Fluorotelomer acrylate]; conditions: 2200 nM; in DMSO
Description: as §1

[6] = compound: C=CC(=O)OCC(F)(F)C(F)(F)C(F)(F)COC(=O)C=C [1H,1H,5H,5H-Perfluoro-1,5-pentanediol diacrylate]; conditions: 2200 nM; in DMSO
Description: as §1

[7] = compound: O=C(O)C=C(C(F)(F)F)C(F)(F)F [3,3-Bis(trifluoromethyl)-2-propenoic acid]; conditions: in DMSO
Description: as §1

Perfluoro-1-iodohexane = compound: FC(F)(F)C(F)(F)C(F)(F)C(F)(F)C(F)(F)C(F)(F)I [Perfluoro-1-iodohexane]; conditions: in DMSO
Description: as §1

[8] = compound: FC(F)(I)C(F)(F)C(F)(F)C(F)(F)C(F)(F)C(F)(F)I [1,6-Diiodoperfluorohexane]; conditions: 2200 nM; in DMSO
Description: as §1

[9] = compound: O=S(=O)(O)C(F)(F)C(F)(F)C(F)(F)C(F)(F)C(F)(F)C(F)(F)F [Perfluorohexanesulfonic acid]; conditions: 2200 nM; in DMSO
Description: as §1

[10] = compound: C=CC(=O)OCCC(F)(F)C(F)(F)C(F)(F)C(F)(F)F [2-(Perfluorobutyl)ethyl acrylate]; conditions: 2200 nM; in DMSO
Description: as §1

[11] = compound: O=C(O)C(F)(F)C(F)(F)C(F)(F)C(F)(F)C(F)(F)C(F)(F)C(F)(F)C(F)(F)C(F)(F)C(F)(F)C(F)(F)C(F)(F)C(F)(F)F [Perfluorotetradecanoic acid]; conditions: in DMSO
Description: as §1

| Test System | level (log10) (Hexafluoroamylene glycol) | level (log10) [1] | level (log10) ([2]; 740 nM) | level (log10) ([2]; 2200 nM) | level (log10) [3] | level (log10) [4] | level (log10) [5] | level (log10) [6] | level (log10) ([7]; 2200 nM) | level (log10) ([7]; 6700 nM) | level (log10) ([7]; 20000 nM) | level (log10) ([7]; 60000 nM) | level (log10) (Perfluoro-1-iodohexane; 2200 nM) | level (log10) (Perfluoro-1-iodohexane; 6700 nM) | level (log10) (Perfluoro-1-iodohexane; 20000 nM) | level (log10) (Perfluoro-1-iodohexane; 60000 nM) | level (log10) [8] | level (log10) [9] | level (log10) [10] | level (log10) ([11]; 740 nM) | level (log10) ([11]; 2200 nM) |
| --- | --- | --- | --- | --- | --- | --- | --- | --- | --- | --- | --- | --- | --- | --- | --- | --- | --- | --- | --- | --- | --- |
| SAg:CCL2/MCP-1 | 0.0055 ± 0.013 | 0.0085 ± 0.005 | 0.008 ± 0.045 | -0.019 ± 0.0085 | 0.003 ± 0.02 | 0.002 ± 0.0099 | 0.0075 ± 0.028 | -0.0055 ± 0.016 | 0 ± 0.017 | -0.0145 ± 0.00071 | -0.0535 ± 0.0078 | -0.079 ± 0.042 | 0.0205 ± 0.0035 | 0.006 ± 0.018 | -0.0045 ± 0.021 | 0.005 ± 0.05 | 0.0185 ± 0.0092 | 0.0125 ± 0.0092 | -0.008 ± 0.027 | -0.029 ± 0.038 | -0.0065 ± 0.022 |
| lMphg:M-CSF | -0.027 ± 0.017 | 0.015 ± 0.0071 | 0.006 ± 0.0085 | -0.0135 ± 0.013 | -0.041 ± 0.069 | -0.0305 ± 0.015 | -0.017 ± 0.051 | 0.0035 ± 0.03 | -0.0095 ± 0.033 | -0.033 ± 0.0071 | -0.021 ± 0.021 | -0.0325 ± 0.022 | 0.0005 ± 0.019 | -0.0095 ± 0.0035 | -0.032 ± 0.016 | 0.0085 ± 0.026 | 0.0105 ± 0.042 | 0.013 ± 0.0099 | 0.0135 ± 0.0064 | -0.002 ± 0.031 | -0.0065 ± 0.04 |
| HDF3CGF:EGFR | -0.0165 ± 0.025 | -0.014 ± 0.0014 | 0.007 ± 0.013 | -0.0165 ± 0.005 | 0.0175 ± 0.069 | -0.0365 ± 0.049 | -0.0015 ± 0.088 | -0.0025 ± 0.028 | -0.025 ± 0.062 | -0.02 ± 0.041 | -0.039 ± 0.05 | -0.0145 ± 0.0035 | -0.002 ± 0.034 | 0.016 ± 0.05 | 0.0115 ± 0.043 | -0.035 ± 0.14 | -0.001 ± 0.0071 | -0.0015 ± 0.019 | 0.0155 ± 0.015 | -0.0195 ± 0.046 | -0.075 ± 0.035 |
| MyoF:alpha-SM Actin | -0.0125 ± 0.073 | 0.037 ± 0.017 | 0.0025 ± 0.033 | -0.0095 ± 0.022 | 0.0295 ± 0.022 | -0.008 ± 0.042 | 0.02 ± 0.083 | -0.0195 ± 0.0021 | 0.005 ± 0.055 | -0.003 ± 0.054 | -0.01 ± 0.067 | -0.0795 ± 0.044 | 0 ± 0.055 | -0.073 ± 0.021 | -0.173 ± 0.086 | -0.38 ± 0.0092 | -0.114 ± 0.027 | 0.0055 ± 0.0078 | -0.0015 ± 0.0021 | 0.01 ± 0.069 | 0.02 ± 0.017 |
| HDF3CGF:CXCL10/IP-10 | -0.006 ± 0.027 | -0.011 ± 0.035 | -0.01 ± 0.0042 | 0.012 ± 0.0028 | -0.006 ± 0.011 | -0.0055 ± 0.0078 | 0.005 ± 0.016 | -0.497 ± 0.0078 | -0.0145 ± 0.03 | -0.0175 ± 0.005 | -0.0445 ± 0.005 | -0.04 ± 0.025 | -0.0015 ± 0.018 | -0.033 ± 0.014 | -0.0435 ± 0.0035 | -0.114 ± 0.076 | -0.021 ± 0.037 | -0.007 ± 0.0057 | 0.0125 ± 0.011 | 0.0265 ± 0.067 | 0.022 ± 0.027 |
| 4H:CD106/VCAM-1 | 0.018 ± 0.021 | 0.0075 ± 0.019 | 0.0285 ± 0.044 | 0.013 ± 0.013 | 0.0125 ± 0.03 | -0.002 ± 0.0099 | 0.016 ± 0.0042 | 0.0205 ± 0.042 | -0.0785 ± 0.046 | -0.12 ± 0.037 | -0.143 ± 0.017 | -0.25 ± 0.028 | 0.0255 ± 0.012 | 0.013 ± 0.03 | 0.01 ± 0.034 | 0.014 ± 0.068 | 0.0075 ± 0.03 | -0.0265 ± 0.028 | -0.0055 ± 0.018 | -0.02 ± 0.075 | -0.052 ± 0.081 |
